# Measurements published in PMC5177931.
# Chains of the proteins cited; added tags and fusions are not shown. Lines headed by an entry give the natural chain unless they say otherwise; changes in a name come on top. Residues count along the entry.
# UniProt Q9NXA8, residues 37-310: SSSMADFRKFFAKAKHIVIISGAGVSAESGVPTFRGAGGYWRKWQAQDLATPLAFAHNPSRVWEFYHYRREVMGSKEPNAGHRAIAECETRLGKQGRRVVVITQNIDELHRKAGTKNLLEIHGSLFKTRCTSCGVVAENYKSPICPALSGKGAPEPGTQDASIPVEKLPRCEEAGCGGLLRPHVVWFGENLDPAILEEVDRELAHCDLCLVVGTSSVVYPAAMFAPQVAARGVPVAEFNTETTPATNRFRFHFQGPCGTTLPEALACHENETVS
# UniProt Q92793: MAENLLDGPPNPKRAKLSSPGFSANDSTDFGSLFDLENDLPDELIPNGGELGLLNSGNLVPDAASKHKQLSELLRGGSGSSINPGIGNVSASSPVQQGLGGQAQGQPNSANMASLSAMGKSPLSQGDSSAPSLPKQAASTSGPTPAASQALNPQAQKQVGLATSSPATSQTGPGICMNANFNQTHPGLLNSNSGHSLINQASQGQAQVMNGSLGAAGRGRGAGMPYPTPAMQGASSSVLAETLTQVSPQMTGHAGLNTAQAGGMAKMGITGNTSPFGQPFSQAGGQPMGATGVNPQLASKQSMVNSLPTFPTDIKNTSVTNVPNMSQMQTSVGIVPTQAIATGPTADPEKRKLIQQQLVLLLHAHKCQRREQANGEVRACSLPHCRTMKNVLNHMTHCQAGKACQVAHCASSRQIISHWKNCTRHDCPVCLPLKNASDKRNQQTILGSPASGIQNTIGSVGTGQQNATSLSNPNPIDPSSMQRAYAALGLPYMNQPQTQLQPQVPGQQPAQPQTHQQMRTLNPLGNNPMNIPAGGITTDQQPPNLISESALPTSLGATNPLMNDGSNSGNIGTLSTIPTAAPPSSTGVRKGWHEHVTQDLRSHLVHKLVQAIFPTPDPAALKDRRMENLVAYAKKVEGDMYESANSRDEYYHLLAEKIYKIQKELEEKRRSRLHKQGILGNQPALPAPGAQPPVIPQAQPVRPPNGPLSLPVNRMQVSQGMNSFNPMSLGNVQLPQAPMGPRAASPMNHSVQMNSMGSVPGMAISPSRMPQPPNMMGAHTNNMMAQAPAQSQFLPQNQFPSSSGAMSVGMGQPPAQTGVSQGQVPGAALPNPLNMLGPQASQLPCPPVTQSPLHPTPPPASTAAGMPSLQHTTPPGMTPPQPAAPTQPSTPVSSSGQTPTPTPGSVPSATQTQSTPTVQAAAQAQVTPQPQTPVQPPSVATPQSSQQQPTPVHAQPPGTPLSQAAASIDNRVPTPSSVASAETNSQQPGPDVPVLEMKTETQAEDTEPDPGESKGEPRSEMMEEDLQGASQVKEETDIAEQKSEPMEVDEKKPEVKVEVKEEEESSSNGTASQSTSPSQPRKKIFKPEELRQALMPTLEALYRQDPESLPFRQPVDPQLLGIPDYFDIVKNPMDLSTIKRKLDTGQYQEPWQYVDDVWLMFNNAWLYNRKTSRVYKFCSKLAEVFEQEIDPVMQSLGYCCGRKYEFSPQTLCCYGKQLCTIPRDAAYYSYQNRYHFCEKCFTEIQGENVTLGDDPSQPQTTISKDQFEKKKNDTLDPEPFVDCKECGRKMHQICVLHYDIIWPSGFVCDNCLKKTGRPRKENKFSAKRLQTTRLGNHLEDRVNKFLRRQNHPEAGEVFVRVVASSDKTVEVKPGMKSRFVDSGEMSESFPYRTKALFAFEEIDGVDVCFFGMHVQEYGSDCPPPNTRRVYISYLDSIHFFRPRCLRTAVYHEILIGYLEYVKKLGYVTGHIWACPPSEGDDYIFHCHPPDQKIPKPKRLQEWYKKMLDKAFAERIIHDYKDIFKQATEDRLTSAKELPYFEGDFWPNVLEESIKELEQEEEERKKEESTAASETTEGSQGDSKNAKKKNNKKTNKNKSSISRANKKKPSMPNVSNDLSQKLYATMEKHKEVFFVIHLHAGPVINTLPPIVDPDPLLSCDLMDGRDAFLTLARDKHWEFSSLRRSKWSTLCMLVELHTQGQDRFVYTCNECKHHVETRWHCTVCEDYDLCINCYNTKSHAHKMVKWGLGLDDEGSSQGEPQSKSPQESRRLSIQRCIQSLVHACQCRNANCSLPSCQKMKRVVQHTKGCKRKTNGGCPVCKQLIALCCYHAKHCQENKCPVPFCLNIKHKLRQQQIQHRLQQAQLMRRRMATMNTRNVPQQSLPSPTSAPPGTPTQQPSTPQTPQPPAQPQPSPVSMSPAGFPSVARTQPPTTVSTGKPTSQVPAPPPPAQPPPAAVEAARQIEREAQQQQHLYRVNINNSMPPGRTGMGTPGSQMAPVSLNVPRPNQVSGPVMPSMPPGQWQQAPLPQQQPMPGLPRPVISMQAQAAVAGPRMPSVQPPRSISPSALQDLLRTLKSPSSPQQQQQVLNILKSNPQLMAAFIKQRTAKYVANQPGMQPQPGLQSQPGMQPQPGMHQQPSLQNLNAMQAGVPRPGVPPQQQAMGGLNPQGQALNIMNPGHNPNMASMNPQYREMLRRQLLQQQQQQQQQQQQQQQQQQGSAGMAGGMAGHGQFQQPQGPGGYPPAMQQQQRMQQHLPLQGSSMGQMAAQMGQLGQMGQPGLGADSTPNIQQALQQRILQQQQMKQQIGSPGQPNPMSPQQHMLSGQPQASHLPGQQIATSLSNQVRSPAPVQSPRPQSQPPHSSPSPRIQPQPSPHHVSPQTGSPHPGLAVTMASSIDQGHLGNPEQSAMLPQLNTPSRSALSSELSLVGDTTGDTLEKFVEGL
# UniProt P40763: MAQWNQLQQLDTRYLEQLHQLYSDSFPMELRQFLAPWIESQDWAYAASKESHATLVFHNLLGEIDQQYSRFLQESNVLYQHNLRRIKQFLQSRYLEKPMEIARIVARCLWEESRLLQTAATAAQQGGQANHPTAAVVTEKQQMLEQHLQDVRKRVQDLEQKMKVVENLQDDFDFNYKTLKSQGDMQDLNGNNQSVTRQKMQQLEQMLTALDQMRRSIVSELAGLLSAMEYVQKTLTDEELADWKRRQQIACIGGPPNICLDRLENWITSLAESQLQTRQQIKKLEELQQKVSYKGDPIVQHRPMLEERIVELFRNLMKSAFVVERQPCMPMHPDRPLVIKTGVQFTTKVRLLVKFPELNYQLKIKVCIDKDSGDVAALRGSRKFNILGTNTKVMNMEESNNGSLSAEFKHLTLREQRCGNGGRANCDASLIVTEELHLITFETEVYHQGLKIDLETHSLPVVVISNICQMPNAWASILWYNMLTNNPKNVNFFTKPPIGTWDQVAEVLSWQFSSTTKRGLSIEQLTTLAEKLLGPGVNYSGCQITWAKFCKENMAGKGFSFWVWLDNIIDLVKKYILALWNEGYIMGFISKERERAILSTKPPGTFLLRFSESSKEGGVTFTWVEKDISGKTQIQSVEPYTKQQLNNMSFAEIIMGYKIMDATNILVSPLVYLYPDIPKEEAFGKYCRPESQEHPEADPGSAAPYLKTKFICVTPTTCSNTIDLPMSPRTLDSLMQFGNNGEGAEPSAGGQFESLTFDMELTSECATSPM
# UniProt P06213, residues 28-1382: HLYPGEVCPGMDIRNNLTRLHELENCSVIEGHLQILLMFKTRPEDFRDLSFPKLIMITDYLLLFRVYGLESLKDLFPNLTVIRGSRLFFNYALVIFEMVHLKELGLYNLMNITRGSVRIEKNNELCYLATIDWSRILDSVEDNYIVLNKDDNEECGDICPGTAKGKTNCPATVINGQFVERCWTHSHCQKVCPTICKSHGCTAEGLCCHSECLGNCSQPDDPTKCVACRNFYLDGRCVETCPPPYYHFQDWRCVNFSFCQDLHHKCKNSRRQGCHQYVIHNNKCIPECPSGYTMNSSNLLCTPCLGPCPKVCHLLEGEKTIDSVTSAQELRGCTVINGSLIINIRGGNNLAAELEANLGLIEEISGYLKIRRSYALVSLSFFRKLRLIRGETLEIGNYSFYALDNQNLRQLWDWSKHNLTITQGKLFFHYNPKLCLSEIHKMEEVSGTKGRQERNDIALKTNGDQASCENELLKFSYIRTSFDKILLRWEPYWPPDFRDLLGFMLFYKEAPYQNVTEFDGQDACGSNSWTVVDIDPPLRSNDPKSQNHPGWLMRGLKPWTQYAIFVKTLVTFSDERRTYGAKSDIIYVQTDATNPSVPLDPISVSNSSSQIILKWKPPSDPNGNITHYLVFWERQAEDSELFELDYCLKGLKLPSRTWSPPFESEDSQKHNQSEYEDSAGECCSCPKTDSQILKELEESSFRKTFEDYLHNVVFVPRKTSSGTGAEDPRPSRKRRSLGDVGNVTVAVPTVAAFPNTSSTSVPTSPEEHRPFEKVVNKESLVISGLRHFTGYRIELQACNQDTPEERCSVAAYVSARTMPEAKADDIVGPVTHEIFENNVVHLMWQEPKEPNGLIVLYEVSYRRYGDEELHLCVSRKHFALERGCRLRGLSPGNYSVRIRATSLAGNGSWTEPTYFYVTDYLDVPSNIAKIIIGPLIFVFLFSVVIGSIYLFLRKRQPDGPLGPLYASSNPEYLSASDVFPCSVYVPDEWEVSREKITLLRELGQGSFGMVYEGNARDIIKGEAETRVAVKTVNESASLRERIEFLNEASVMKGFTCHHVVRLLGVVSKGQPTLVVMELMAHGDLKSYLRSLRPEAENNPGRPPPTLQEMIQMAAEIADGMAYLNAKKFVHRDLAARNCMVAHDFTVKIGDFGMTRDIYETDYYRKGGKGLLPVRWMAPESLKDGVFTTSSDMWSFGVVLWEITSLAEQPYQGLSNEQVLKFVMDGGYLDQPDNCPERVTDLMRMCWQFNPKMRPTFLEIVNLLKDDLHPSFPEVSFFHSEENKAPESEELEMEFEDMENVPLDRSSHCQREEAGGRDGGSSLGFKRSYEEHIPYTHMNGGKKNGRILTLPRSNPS
# Results are given in words; binding and its absence hold for the method and conditions named. In cells and extracts the contact can be indirect. Some binding calls cover weakened binding; strength is not graded here.
# Key:
# [1] = biological target: Flag-SIRT5 (UniProt Q9NXA8); assay: co-IP; STAT3 full length, 1-130 and 465-770 cotransfected with Flag-SIRT5 in 293T cells; Flag-SIRT5 immunoprecipitates blotted for STAT3
# [2] = biological target: CBP (exogenously expressed) (UniProt Q92793); assay: co-IP; exogenously expressed CBP and insulin receptor in 293T cells (Supplementary Fig. 2a)
Substance,binding [1],binding [2]
STAT3 1-130 (from UniProt P40763 1-130) (domain or fragment),binds weakly,
STAT3 465-770 (from UniProt P40763 465-770) (domain or fragment),binds,
insulin receptor (exogenously expressed) (from UniProt P06213 28-1382),,binds
STAT3 full length (cotransfected with Flag-SIRT5) (from UniProt P40763 1-770),binds,
